{"source": "PubChem BioAssay AID1053208 (Peter MacCallum Cancer Centre, 2014)", "purpose": "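Find knock-downs that sensitise mouse osteosarcoma cells to doxorubicin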 (primary screen)", "cells": "mouse osteosarcoma cells, early-passage culture from an engineered mouse model of fibroblastic bone tumour", "knock-down reagent": "siRNA pool against mouse genes, 40 nM", "time to read-out": "about 120 h (48 h before drug, then 72 h with drug)", "treatment": "doxorubicin 100 nM for 72 h, roughly 30-40% inhibitory dose", "read-out": "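Luminescent ATP signal taken as viability with or without 100 nM doxorubicin for 72 h; mean of two wells set against non-targeting siRNA and turned into robust z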", "direction": "viability z-score with doxorubicin: higher = more viable cells under doxorubicin; viability z-score without drug: higher = more viable cells with knock-down alone", "rule for the call": "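a pool counts as active when its viability z-score with doxorubicin is -2 or below and its z-score without drug lies between -2 and 2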", "note": "The deposit covers about 17,000 reagents; shown is an unselected part. 788 of all reagents (4.7%) were called active. 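Calls rest on z-score classes alone; an extra cut-off of viability at most 70% of control was not applied to them.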 Further read-outs or replicates are left out here."}
{"target": "Tmem59", "combined z-score class": "no change with or without drug", "viability z-score with doxorubicin": 0.9, "viability z-score without drug": -0.17, "activity call": "inactive"}
{"target": "Xpc", "combined z-score class": "no change with or without drug", "viability z-score with doxorubicin": 0.34, "viability z-score without drug": 0.67, "activity call": "inactive"}
{"target": "Bmal1", "combined z-score class": "no change with or without drug", "viability z-score with doxorubicin": -0.45, "viability z-score without drug": 1.18, "activity call": "inactive"}
{"target": "Ppia", "combined z-score class": "no change with or without drug", "viability z-score with doxorubicin": 0, "viability z-score without drug": 1.69, "activity call": "inactive"}
{"target": "Ndufb11", "combined z-score class": "low cell count without drug only", "viability z-score with doxorubicin": 0.67, "viability z-score without drug": -2.02, "activity call": "inactive"}
{"target": "Map3k1", "combined z-score class": "low cell count with doxorubicin only", "viability z-score with doxorubicin": -2.25, "viability z-score without drug": -1.35, "activity call": "active"}
{"target": "Serpina1d", "combined z-score class": "no change with or without drug", "viability z-score with doxorubicin": -0.56, "viability z-score without drug": -0.51, "activity call": "inactive"}
{"target": "Fbn1", "combined z-score class": "low cell count with doxorubicin only", "viability z-score with doxorubicin": -2.92, "viability z-score without drug": -0.51, "activity call": "active"}
{"target": "Cyp27a1", "combined z-score class": "no change with or without drug", "viability z-score with doxorubicin": 0.45, "viability z-score without drug": 0.84, "activity call": "inactive"}
{"target": "Ppard", "combined z-score class": "no change with or without drug", "viability z-score with doxorubicin": 0.45, "viability z-score without drug": -0.34, "activity call": "inactive"}

Next part; the last 3 above are carried over.
{"target": "Fbn1", "combined z-score class": "low cell count with doxorubicin only", "viability z-score with doxorubicin": -2.92, "viability z-score without drug": -0.51, "activity call": "active"}
{"target": "Cyp27a1", "combined z-score class": "no change with or without drug", "viability z-score with doxorubicin": 0.45, "viability z-score without drug": 0.84, "activity call": "inactive"}
{"target": "Ppard", "combined z-score class": "no change with or without drug", "viability z-score with doxorubicin": 0.45, "viability z-score without drug": -0.34, "activity call": "inactive"}
{"target": "Nos3", "combined z-score class": "no change with or without drug", "viability z-score with doxorubicin": -0.22, "viability z-score without drug": -1.52, "activity call": "inactive"}
{"target": "Tmem150cos", "combined z-score class": "no change with or without drug", "viability z-score with doxorubicin": -0.22, "viability z-score without drug": 1.18, "activity call": "inactive"}
{"target": "Copb2", "combined z-score class": "low cell count with and without drug", "viability z-score with doxorubicin": -6.97, "viability z-score without drug": -7.08, "activity call": "inactive"}
{"target": "Mcmdc2", "combined z-score class": "no change with or without drug", "viability z-score with doxorubicin": 1.35, "viability z-score without drug": 1.85, "activity call": "inactive"}
{"target": "Pitx2", "combined z-score class": "no change with or without drug", "viability z-score with doxorubicin": -1.24, "viability z-score without drug": -0.84, "activity call": "inactive"}
{"target": "Adgrb3", "combined z-score class": "no change with or without drug", "viability z-score with doxorubicin": -0.11, "viability z-score without drug": 0.84, "activity call": "inactive"}
{"target": "Wdr35", "combined z-score class": "no change with or without drug", "viability z-score with doxorubicin": -0.11, "viability z-score without drug": 0.17, "activity call": "inactive"}
{"target": "Riok2", "combined z-score class": "no change with or without drug", "viability z-score with doxorubicin": -0.22, "viability z-score without drug": 0.84, "activity call": "inactive"}
{"target": "Rbbp9", "combined z-score class": "no change with or without drug", "viability z-score with doxorubicin": 1.24, "viability z-score without drug": -0.51, "activity call": "inactive"}
{"target": "Rgma", "combined z-score class": "no change with or without drug", "viability z-score with doxorubicin": -1.57, "viability z-score without drug": -0.51, "activity call": "inactive"}
{"target": "Zfp617", "combined z-score class": "no change with or without drug", "viability z-score with doxorubicin": 0.22, "viability z-score without drug": 0.51, "activity call": "inactive"}
{"target": "Lap3", "combined z-score class": "high cell count without drug only", "viability z-score with doxorubicin": 0.9, "viability z-score without drug": 3.71, "activity call": "inactive"}
{"target": "Osbp", "combined z-score class": "no change with or without drug", "viability z-score with doxorubicin": 1.91, "viability z-score without drug": 1.85, "activity call": "inactive"}
{"target": "Nectin3", "combined z-score class": "no change with or without drug", "viability z-score with doxorubicin": 0.9, "viability z-score without drug": 0.17, "activity call": "inactive"}
{"target": "Psmb8", "combined z-score class": "no change with or without drug", "viability z-score with doxorubicin": 1.12, "viability z-score without drug": 1.69, "activity call": "inactive"}
{"target": "Fam114a1", "combined z-score class": "no change with or without drug", "viability z-score with doxorubicin": -0.56, "viability z-score without drug": -1.18, "activity call": "inactive"}
{"target": "Bhmt", "combined z-score class": "high cell count without drug only", "viability z-score with doxorubicin": 0.34, "viability z-score without drug": 2.19, "activity call": "inactive"}
{"target": "Vmn1r13", "combined z-score class": "no change with or without drug", "viability z-score with doxorubicin": -0.11, "viability z-score without drug": 0.51, "activity call": "inactive"}
